Reference: PubChem BioAssay AID1508588 (Peter MacCallum Cancer Centre, 2020)
Here is one part, drawn at random, of about 18,000 reagents tested. Of all reagents, 790 (4.4%) were called active. 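Calls rest on a combination of fold-change classes in drug and vehicle arms, not all shown here.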 The numbers tell different reagents against one gene apart.

- Test: 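Knock-downs boosting vemurafenib effects on melanoma cell growth or lactate release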 (primary screen)
- Cell system: human WM266.4 melanoma cells (BRAF V600 mutant)
- Reagents: siRNA pool against human genes, 40 nM
- Time to read-out: 96 h from transfection to read-out
- Treatment: vemurafenib 300 nM (about IC25), added 48 h after transfection, for 48 h; comparison arm got DMSO vehicle only
- Measurement: 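Cell gain (DAPI nuclei at end minus before drug, mean of two replicates) and medium lactate by absorbance per cell, both as ratio to non-targeting siRNA, also grouped into fold-change classes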
- Direction: cell gain with vemurafenib: higher = more cell gain than with non-targeting siRNA; lactate per cell with vemurafenib: higher = more lactate made per cell
- Rule for the call: 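a knock-down counts as enhancing when its fold-change classes with vehicle and with vemurafenib, taken together, show a stronger drug effect on cell gain or lactate per cell; exact class pairs not stated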
- Meaning of the calls: active = enhances vemurafenib effect; inactive = no enhancement seen

gene,reagent,cell gain with vemurafenib,lactate per cell with vemurafenib,call
ISOC2 (GeneID 79763),1,0.69,0.48,inactive
KRTAP12-3 (GeneID 386683),1,0.81,0.56,inactive
BHMT2 (GeneID 23743),1,0.15,1.88,inactive
POU3F3 (GeneID 5455),1,0.79,0.5,inactive
CENPE (GeneID 1062),1,0.19,1.6,inactive
MEST (GeneID 4232),1,0.85,0.52,inactive
EXO1 (GeneID 9156),1,1.26,0.52,inactive
TSHZ1 (GeneID 10194),1,0.38,2.39,inactive
OR10P1 (GeneID 121130),1,0.54,0.77,inactive
GFOD1 (GeneID 54438),1,0.48,1.1,inactive
GFOD1 (GeneID 54438),2,0.48,0.73,inactive
TTC12 (GeneID 54970),1,0.35,0.42,inactive
UBE3D (GeneID 90025),1,0.17,2.4,inactive
PPP1R14D (GeneID 54866),1,0.5,0.5,inactive
CPNE9 (GeneID 151835),1,0.54,0.87,inactive
ADAD2 (GeneID 161931),1,0.53,1.02,inactive
OPRM1 (GeneID 4988),1,0.76,0.76,inactive
LINC02875 (GeneID 388407),1,0.38,1.36,inactive
NUP133 (GeneID 55746),1,0.09,0.57,active
FAM174A (GeneID 345757),1,0.61,0.5,inactive
PCDHB14 (GeneID 56122),1,0.96,0.35,active
MYRFL (GeneID 196446),1,0.51,0.9,inactive
FBXO36 (GeneID 130888),1,0.74,-0.2,inactive
COXFA4L3 (GeneID 84419),1,-0.02,0.74,inactive
SAMD5 (GeneID 389432),1,0.89,1.74,inactive
NUF2 (GeneID 83540),1,0.01,1.33,inactive
NEURL4 (GeneID 84461),1,0.39,1.35,inactive
CCDC74A (GeneID 90557),1,1.12,1.3,inactive
USP53 (GeneID 54532),1,0.48,0.66,inactive
CCDC102A (GeneID 92922),1,1.39,0.58,inactive
KLRK1 (GeneID 22914),1,0.77,0.92,inactive
DYNLL2 (GeneID 140735),1,0.74,0.7,inactive
DLGAP3 (GeneID 58512),1,0.48,0.92,inactive
FCHSD2 (GeneID 9873),1,1.07,0.51,inactive
APOBEC3A (GeneID 200315),1,0.06,0.9,inactive
PILRB (GeneID 29990),1,0.6,0.64,inactive
SPRED1 (GeneID 161742),1,0.75,1.04,inactive
PIGP (GeneID 51227),1,0.2,1.08,inactive
SPRR2F (GeneID 6705),1,0.44,1.11,inactive
TIMM10 (GeneID 26519),1,0.44,1.28,inactive
RLIM (GeneID 51132),1,1.17,0.67,inactive
ZNF823 (GeneID 55552),1,0.96,0.57,inactive
FBXO17 (GeneID 115290),1,0.36,2.24,inactive
TRIM34 (GeneID 53840),1,0.81,0.94,inactive
THUMPD1 (GeneID 55623),1,0.73,1.01,inactive
CARD11 (GeneID 84433),1,0.4,0.19,active
HTR2A (GeneID 3356),1,0.49,1.06,inactive
DDX27 (GeneID 55661),1,0.44,0.74,inactive
DIRAS3 (GeneID 9077),1,0.82,1.1,inactive
PGAP6 (GeneID 58986),1,0.08,1.37,inactive
GABRB1 (GeneID 2560),1,0.38,0.6,active
SULT6B1 (GeneID 391365),1,0.64,0.3,inactive
STT3B (GeneID 201595),1,0.31,0.94,inactive
FBH1 (GeneID 84893),1,1.1,0.92,inactive
SACK1G (GeneID 644815),1,1.09,0.7,inactive
FCRL2 (GeneID 79368),1,0.34,1.27,inactive
NCOA2 (GeneID 10499),1,0.8,0.6,inactive
YWHAZ (GeneID 7534),1,0.4,1.75,inactive
ASB10 (GeneID 136371),1,1.08,0.48,inactive
OR52E4 (GeneID 390081),1,-0.04,1.84,inactive
TAC1 (GeneID 6863),1,0.9,0.31,inactive
LIFR (GeneID 3977),1,0.52,0.64,inactive
CPNE4 (GeneID 131034),1,0.46,0.54,active
GAL (GeneID 51083),1,0.93,1.64,inactive
BLK (GeneID 640),1,0.98,0.44,active
PPP2R3C (GeneID 55012),1,0.2,0.56,inactive
RANGAP1 (GeneID 5905),1,0.58,0.68,inactive

The list goes on; the last 7 above are carried over.
gene,reagent,cell gain with vemurafenib,lactate per cell with vemurafenib,call
TAC1 (GeneID 6863),1,0.9,0.31,inactive
LIFR (GeneID 3977),1,0.52,0.64,inactive
CPNE4 (GeneID 131034),1,0.46,0.54,active
GAL (GeneID 51083),1,0.93,1.64,inactive
BLK (GeneID 640),1,0.98,0.44,active
PPP2R3C (GeneID 55012),1,0.2,0.56,inactive
RANGAP1 (GeneID 5905),1,0.58,0.68,inactive
EIF4G2 (GeneID 1982),1,0.78,0.44,inactive
TPRG1L (GeneID 127262),1,0.34,0.92,inactive
EFTUD2 (GeneID 9343),1,0.11,1.76,inactive
MCM6 (GeneID 4175),1,0.74,0.86,inactive
GJB1 (GeneID 2705),1,0.33,1.15,inactive
RNGTT (GeneID 8732),1,0.3,1.55,inactive
TSPAN7 (GeneID 7102),1,0.73,1.1,inactive
ERBB3 (GeneID 2065),1,0.78,0.5,inactive
CEACAM18 (GeneID 729767),1,1.09,0.92,inactive
SMCO1 (GeneID 255798),1,0.93,0.55,inactive
RUFY2 (GeneID 55680),1,0.57,1.39,inactive
FHL3 (GeneID 2275),1,0.46,0.56,inactive
CIMIP5 (GeneID 130813),1,0.43,1.57,inactive
SERINC1 (GeneID 57515),1,1.01,0.74,inactive
PPP4R1 (GeneID 9989),1,1.13,1.15,inactive
GSC (GeneID 145258),1,0.25,1.17,inactive
GYG1 (GeneID 2992),1,0.26,1.66,inactive
L3MBTL3 (GeneID 84456),1,0.22,-0.03,active
BCORL1 (GeneID 63035),1,0.18,-0.09,active
ETV3 (GeneID 2117),1,0.52,1.18,inactive
DGKB (GeneID 1607),1,0.5,0.9,inactive
UPP2 (GeneID 151531),1,1.08,0.78,inactive
RORB (GeneID 6096),1,0.41,1.36,inactive
IL3 (GeneID 3562),1,0.07,3.08,inactive
ZNF160 (GeneID 90338),1,0.27,0.87,inactive
HTR4 (GeneID 3360),1,0.5,1.27,inactive
EME2 (GeneID 197342),1,0,0,inactive
AJAP1 (GeneID 55966),1,0.5,0.54,inactive
SLC25A14 (GeneID 9016),1,0.29,1.08,inactive
MCCC1 (GeneID 56922),1,0.5,0.77,inactive
UTP6 (GeneID 55813),1,1.25,0.4,inactive
NRAP (GeneID 4892),1,0.6,1.46,inactive
NFS1 (GeneID 9054),1,0.28,1.08,inactive
PCYT1B (GeneID 9468),1,0.5,1.48,inactive
IZUMO4 (GeneID 113177),1,0.63,0.64,inactive
TMCO1 (GeneID 54499),1,0.79,0.66,inactive
KCNN2 (GeneID 3781),1,0.65,0.86,inactive
IQCN (GeneID 80726),1,0.88,1.17,inactive
TNK2 (GeneID 10188),1,0.22,0.8,inactive
LAYN (GeneID 143903),1,0.85,0.78,inactive
